Source: the supplement of paper PMC6078165
Values are relative to the signal before dosing, not to a vehicle control; the signal also falls without drug.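 Labels refer to human fibroblasts, largely primary: uterine (C12385, HUF), lung (H6013), bone (Hs27A), adrenal (HADF), skin (WS1), plus mammary HMF and breast cancer-associated Hs343T. Cancer lines are basal-like or mesenchymal-like triple-negative breast cancer. The paper counts as hits responses shifting over 3x the replicate standard deviation. The tissue of the other fibroblasts is not given here.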

Test system: Hs578T
Assay: relative JC-1 red fluorescence (viability) vs pre-drug, coculture with fibroblast (fraction); higher = more viable cancer cells
Experimental: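 JC-1 labelled TNBC cells cocultured 1:1 (1,500 cells each) with CellTrace Violet stained primary or stromal fibroblasts in 384-well plates in FluoroBrite medium, treated with one of 42 anticancer drugs at 0.1, 1, 10 or 100 uM. JC-1 red fluorescence (mitochondrial integrity in cancer cells only) was read by plate reader every 8 h for 72 h. Values are normalised to each well's pre-drug value. The stock of one drug was tenfold lower, so its dose labels may be too high.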

O=C(CCCCCCC(=O)Nc1ccccc1)NO [Vorinostat]
relative JC-1 red fluorescence
Conditions | 8 h | 16 h | 24 h | 32 h | 40 h | 48 h | 56 h | 64 h | 72 h
0.1 µM | 0.877 | 0.777 | 0.711 | 0.671 | 0.606 | 0.562 | 0.53 | 0.49 | 0.472
1 µM | 0.9305 | 0.815 | 0.715 | 0.647 | 0.578 | 0.529 | 0.499 | 0.465 | 0.451

relative JC-1 red fluorescence
Conditions | 8 h | 16 h | 24 h | 32 h | 40 h | 48 h | 56 h | 64 h | 72 h
0.1 µM, coculture fibroblast: C12385 | 0.829 | 0.698 | 0.647 | 0.554 | 0.49 | 0.457 | 0.4279 | 0.415 | 0.4081
0.1 µM, coculture fibroblast: H6013 | 0.8079 | 0.767 | 0.714 | 0.6772 | 0.6504 | 0.6456 | 0.628 | 0.6272 | 0.604
0.1 µM, coculture fibroblast: H6019 | 0.764 | 0.6672 | 0.603 | 0.5064 | 0.453 | 0.41 | 0.372 | 0.345 | 0.323
0.1 µM, coculture fibroblast: H6076 | 0.884 | 0.8098 | 0.74055 | 0.715 | 0.6658 | 0.66 | 0.634 | 0.621 | 0.62
0.1 µM, coculture fibroblast: H6231 | 0.943 | 0.847 | 0.76 | 0.709 | 0.641 | 0.612 | 0.562 | 0.537 | 0.514
0.1 µM, coculture fibroblast: HADF | 0.882 | 0.773 | 0.726 | 0.688 | 0.654 | 0.633 | 0.608 | 0.601 | 0.577
0.1 µM, coculture fibroblast: HCFa | 0.847 | 0.762 | 0.694 | 0.629 | 0.577 | 0.545 | 0.504 | 0.487 | 0.452
0.1 µM, coculture fibroblast: HCPF | 0.921 | 0.851 | 0.793 | 0.743 | 0.684 | 0.662 | 0.629 | 0.587 | 0.563
0.1 µM, coculture fibroblast: HHSteC | 0.8522 | 0.726 | 0.6575 | 0.596 | 0.532 | 0.492 | 0.457 | 0.43 | 0.396
0.1 µM, coculture fibroblast: HMF | 0.8831 | 0.787 | 0.731 | 0.705 | 0.6422 | 0.62 | 0.589 | 0.567 | 0.553
0.1 µM, coculture fibroblast: HPFa | 0.937 | 0.833 | 0.77 | 0.715 | 0.669 | 0.635 | 0.5977 | 0.579 | 0.537
0.1 µM, coculture fibroblast: HUF | 0.8461 | 0.693 | 0.648 | 0.5427 | 0.485 | 0.457 | 0.432 | 0.43 | 0.426
0.1 µM, coculture fibroblast: Hs27A | 0.894 | 0.799 | 0.751 | 0.704 | 0.642 | 0.607 | 0.564 | 0.551 | 0.503
0.1 µM, coculture fibroblast: Hs343T | 0.913 | 0.79 | 0.7109 | 0.6729 | 0.592 | 0.5506 | 0.503 | 0.479 | 0.4722
0.1 µM, coculture fibroblast: WS1 | 0.824 | 0.697 | 0.6187 | 0.534 | 0.471 | 0.44 | 0.402 | 0.391 | 0.385
1 µM, coculture fibroblast: C12385 | 0.8285 | 0.7414 | 0.648 | 0.545 | 0.471 | 0.44 | 0.418 | 0.415 | 0.415
1 µM, coculture fibroblast: H6013 | 0.901 | 0.857 | 0.813 | 0.797 | 0.769 | 0.768 | 0.759 | 0.774 | 0.759
1 µM, coculture fibroblast: H6019 | 0.7676 | 0.648 | 0.583 | 0.49 | 0.462 | 0.454 | 0.429 | 0.427 | 0.413
1 µM, coculture fibroblast: H6076 | 0.948 | 0.862 | 0.76 | 0.722 | 0.662 | 0.645 | 0.627 | 0.6192 | 0.6212
1 µM, coculture fibroblast: H6231 | 0.93 | 0.88 | 0.754 | 0.718 | 0.669 | 0.636 | 0.588 | 0.562 | 0.545
1 µM, coculture fibroblast: HADF | 0.872 | 0.788 | 0.718 | 0.67 | 0.63 | 0.61 | 0.589 | 0.586 | 0.571
1 µM, coculture fibroblast: HCFa | 0.878 | 0.843 | 0.77 | 0.721 | 0.669 | 0.653 | 0.623 | 0.61 | 0.571
1 µM, coculture fibroblast: HCPF | 0.932 | 0.838 | 0.7372 | 0.69 | 0.615 | 0.59 | 0.573 | 0.563 | 0.549
1 µM, coculture fibroblast: HHSteC | 0.903 | 0.838 | 0.767 | 0.729 | 0.678 | 0.655 | 0.635 | 0.622 | 0.586
1 µM, coculture fibroblast: HMF | 0.8831 | 0.788 | 0.6817 | 0.652 | 0.582 | 0.537 | 0.508 | 0.496 | 0.49
1 µM, coculture fibroblast: HPFa | 0.91 | 0.853 | 0.746 | 0.68 | 0.66 | 0.639 | 0.614 | 0.601 | 0.575
1 µM, coculture fibroblast: HUF | 0.8646 | 0.7566 | 0.6513 | 0.5315 | 0.4632 | 0.427 | 0.395 | 0.385 | 0.378
1 µM, coculture fibroblast: Hs27A | 0.87 | 0.811 | 0.756 | 0.682 | 0.622 | 0.603 | 0.576 | 0.572 | 0.536
1 µM, coculture fibroblast: Hs343T | 0.8906 | 0.7783 | 0.6747 | 0.653 | 0.57454 | 0.5433 | 0.51 | 0.498 | 0.496
1 µM, coculture fibroblast: WS1 | 0.8169 | 0.693 | 0.641 | 0.531 | 0.466 | 0.45 | 0.429 | 0.439 | –
